From the supplement of paper PMC4604168 (melanoma cell lines)
The other results are listed elsewhere or left out. Many values rest on one well or one pass, so single values are uncertain.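 Imaging used 1,536-well plates; nuclei positive for cleaved PARP by antibody were divided by total DNA-stained nuclei to yield the apoptosis fraction. Doses for screening kept most cells viable, and cell lines differ markedly in resting and induced cleaved-PARP levels.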

Legend:
Assay in all cases: cleaved PARP positive nuclei fraction relative to DMSO control; melanoma cells; higher = more apoptosis
Details in all cases: library dose: low library concentration; 72 h
[1] = system: COLO792
[2] = system: COLO800
[3] = system: COLO829
[4] = system: G361
[5] = system: IPC-298
[6] = system: IST-MEL1
[7] = system: LB2518-MEL
[8] = system: LOXIMVI

Row | SMILES | cleaved PARP positive nuclei fraction [1] | cleaved PARP positive nuclei fraction [2] | cleaved PARP positive nuclei fraction [3] | cleaved PARP positive nuclei fraction [4] | cleaved PARP positive nuclei fraction [5] | cleaved PARP positive nuclei fraction [6] | cleaved PARP positive nuclei fraction [7] | cleaved PARP positive nuclei fraction [8]
1 | C[C@]12O[C@H](C[C@]1(O)CO)n1c3ccccc3c3c4c(c5c6ccccc6n2c5c31)CNC4=O [Lestaurtinib] + O=C1NC(=O)/C(=C/c2ccc(-c3ccc(F)cc3O)o2)S1 [AS252424] (first compound 0.004 µM, partner dose 1 µM) | 91.5% | 153% | 26.2% | 150% | 62.6% | 178% | 73% | 153%
2 | CNC(=O)c1cc(Oc2ccc(NC(=O)Nc3ccc(Cl)c(C(F)(F)F)c3)cc2)ccn1 [sorafenib] + Cc1cc(SCc2sc(-c3ccc(C(F)(F)F)c(F)c3)nc2C)ccc1OCC(=O)O [GW0742] (first compound 0.4 µM, partner dose 2 µM) | 134% | 205% | 52.1% | 25.9% | 104% | 86.6% | 62.5% | 82.2%
3 | Clc1ccc(Nc2nnc(Cc3ccncc3)c3ccccc23)cc1 [vatalanib] + C/C(O)=C(\C#N)C(=O)Nc1cc(Br)ccc1Br [LFM-A13] (first compound 2 µM, partner dose 2 µM) | 35.4% | 79.3% | 109% | 57.9% | 55% | 47.7% | 90.3% | 153%
4 | Cn1cc(C2=C(c3cn(C4CCN(Cc5ccccn5)CC4)c4ccccc34)C(=O)NC2=O)c2ccccc21 [Enzastaurin] + COc1cc2ncnc(Nc3ccc(Oc4ccccc4)cc3)c2cc1OC [SrcI1] (first compound 0.8 µM, partner dose 2 µM) | 29.5% | 83.8% | 34.9% | 102% | 36.1% | 65.3% | 56.4% | 359%
5 | Cn1cnc2c(F)c(Nc3ccc(Br)cc3Cl)c(C(=O)NOCCO)cc21 [selumetinib] + Cc1cc(SCc2sc(-c3ccc(C(F)(F)F)c(F)c3)nc2C)ccc1OCC(=O)O [GW0742] (first compound 0.015 µM, partner dose 2 µM) | 91.4% | 74.4% | 86.2% | 161% | 124% | 162% | 357% | 59.9%
6 | NC(=O)c1ccc(N(C(N)=O)c2c(F)cccc2F)nc1-c1ccc(F)cc1F + Cc1cc(SCc2sc(-c3ccc(C(F)(F)F)c(F)c3)nc2C)ccc1OCC(=O)O [GW0742] (first compound 0.4 µM, partner dose 2 µM) | 265% | 55.4% | 126% | 119% | 36.1% | 98.4% | 72% | 89.5%
7 | CC(=O)c1c(C)c2cnc(Nc3ccc(N4CCNCC4)cn3)nc2n(C2CCCC2)c1=O [palbociclib] + O=C(Oc1ccc([N+](=O)[O-])cc1)N1CCC(C(O)(c2ccc3c(c2)OCO3)c2ccc3c(c2)OCO3)CC1 [JZL184] (first compound 0.04 µM, partner dose 1 µM) | 117% | 39.1% | 55.7% | 200% | 100% | 22.7% | 81.5% | 48.2%
8 | COc1cc([C@@H]2c3cc4c(cc3[C@@H](O[C@@H]3O[C@@H]5CO[C@@H](C)O[C@H]5[C@H](O)[C@H]3O)[C@H]3COC(=O)[C@H]23)OCO4)cc(OC)c1O [etoposide] + O=C(Oc1ccc([N+](=O)[O-])cc1)N1CCC(C(O)(c2ccc3c(c2)OCO3)c2ccc3c(c2)OCO3)CC1 [JZL184] (first compound 0.02 µM, partner dose 1 µM) | 104% | 128% | 68.8% | 106% | 101% | 118% | 232% | 101%
9 | NC1(c2ccc(-c3nc4ccn5c(=O)[nH]nc5c4cc3-c3ccccc3)cc2)CCC1 + C/C(O)=C(\C#N)C(=O)Nc1cc(Br)ccc1Br [LFM-A13] (first compound 0.4 µM, partner dose 2 µM) | 138% | 31.3% | 94.4% | 79.4% | 60.4% | 28% | 74.2% | 119%
10 | Cc1cc(Nc2cc(N3CCN(C)CC3)nc(/C=C/c3ccccc3)n2)n[nH]1 + C/C(O)=C(\C#N)C(=O)Nc1cc(Br)ccc1Br [LFM-A13] (first compound 0.04 µM, partner dose 2 µM) | 129% | 60.2% | 139% | 65.1% | 89.9% | 158% | 86.2% | 68.4%
11 | Cn1c(=O)n(-c2ccc(C(C)(C)C#N)cc2)c2c3cc(-c4cnc5ccccc5c4)ccc3ncc21 + Cc1cc(SCc2sc(-c3ccc(C(F)(F)F)c(F)c3)nc2C)ccc1OCC(=O)O [GW0742] (first compound 0.004 µM, partner dose 2 µM) | 123% | 65.4% | 103% | 73.2% | 147% | 67.9% | 67.3% | 141%
12 | C[C@@H](Oc1cc(-c2cnn(C3CCNCC3)c2)cnc1N)c1c(Cl)ccc(F)c1Cl [Crizotinib] + C/C(O)=C(\C#N)C(=O)Nc1cc(Br)ccc1Br [LFM-A13] (first compound 0.2 µM, partner dose 2 µM) | 122% | 44.5% | 106% | 106% | 94% | 86.8% | 72.3% | 72.6%
13 | O=C(/C=C/c1cccnc1)NCCCCC1CCN(C(=O)c2ccccc2)CC1 + C/C(O)=C(\C#N)C(=O)Nc1cc(Br)ccc1Br [LFM-A13] (first compound 0.01 µM, partner dose 2 µM) | 207% | 202% | 258% | 5060% | 512% | 226% | 93.8% | 71.8%
14 | CS(=O)(=O)c1ccc(C(=O)Nc2ccc(Cl)c(-c3ccccn3)c2)c(Cl)c1 [vismodegib] + C/C(O)=C(\C#N)C(=O)Nc1cc(Br)ccc1Br [LFM-A13] (first compound 1 µM, partner dose 2 µM) | 138% | 97% | 110% | 37.2% | 116% | 152% | 65.4% | 56.5%
15 | Cn1cc(C2=C(c3cn(C4CCN(Cc5ccccn5)CC4)c4ccccc34)C(=O)NC2=O)c2ccccc21 [Enzastaurin] + C/C(O)=C(\C#N)C(=O)Nc1cc(Br)ccc1Br [LFM-A13] (first compound 0.8 µM, partner dose 2 µM) | 166% | 32.6% | 116% | 44.3% | 64.1% | 164% | 75.6% | 71%
16 | Cn1sc(=O)n(Cc2ccccc2)c1=O + O=C(Oc1ccc([N+](=O)[O-])cc1)N1CCC(C(O)(c2ccc3c(c2)OCO3)c2ccc3c(c2)OCO3)CC1 [JZL184] (first compound 0.4 µM, partner dose 1 µM) | 117% | 50.3% | 51.6% | 145% | 47.9% | 120% | 60.6% | 112%
17 | CN1CCN(c2ccc3nc(-c4c(N)c5c(F)cccc5[nH]c4=O)[nH]c3c2)CC1 [Dovitinib] + O=C(Oc1ccc([N+](=O)[O-])cc1)N1CCC(C(O)(c2ccc3c(c2)OCO3)c2ccc3c(c2)OCO3)CC1 [JZL184] (first compound 0.1 µM, partner dose 1 µM) | 96.7% | 76.2% | 103% | 247% | 88.1% | 87.3% | 70.9% | 76.9%
18 | C[C@]12O[C@H](C[C@]1(O)CO)n1c3ccccc3c3c4c(c5c6ccccc6n2c5c31)CNC4=O [Lestaurtinib] + COc1ccc(-c2ccc3c(N4CCOCC4)nc(N4C[C@@H](C)O[C@@H](C)C4)nc3n2)cc1CO [KU0063794] (first compound 0.004 µM, partner dose 0.02 µM) | 79.3% | 79.9% | 156% | 79.1% | 103% | 99% | 105% | 97.6%
19 | N.N.[Cl][Pt][Cl] [cisplatin] + O=C(O)C(=O)Nc1sc2c(c1C(=O)O)CCNC2 [TCS401] (first compound 1.6 µM, partner dose 1.66667 µM) | 76% | 64.5% | 107% | 274% | 34% | 49% | 42.4% | 106%
20 | N.N.[Cl][Pt][Cl] [cisplatin] + Cc1cc(SCc2sc(-c3ccc(C(F)(F)F)c(F)c3)nc2C)ccc1OCC(=O)O [GW0742] (first compound 1.6 µM, partner dose 2 µM) | 128% | 48.1% | 82.2% | 138% | 64.4% | 99.3% | 116% | 60.9%
21 | Cn1cc(C2=C(c3cn(C4CCN(Cc5ccccn5)CC4)c4ccccc34)C(=O)NC2=O)c2ccccc21 [Enzastaurin] + COc1cc(N2CCC(N3CCN(C)CC3)CC2)ccc1Nc1ncc(Cl)c(Nc2ccccc2S(=O)(=O)C(C)C)n1 [NVP-TAE684] (first compound 0.8 µM, partner dose 0.08 µM) | 151% | 169% | 156% | 229% | 72.6% | 89.8% | 64.6% | 193%
22 | N.N.[Cl][Pt][Cl] [cisplatin] + Oc1nc(-c2ccc(C(F)(F)F)cc2)nc2c1CSCC2 [XAV939] (first compound 1.6 µM, partner dose 2 µM) | 113% | 124% | 98.3% | 115% | 96.3% | 120% | 75.3% | 36.9%
23 | CO[C@H]1C[C@@H]2CC[C@@H](C)[C@@](O)(O2)C(=O)C(=O)N2CCCC[C@H]2C(=O)O[C@H]([C@H](C)C[C@@H]2CC[C@@H](OCCO)[C@H](OC)C2)CC(=O)[C@H](C)/C=C(\C)[C@@H](O)[C@@H](OC)C(=O)[C@H](C)C[C@H](C)/C=C/C=C/C=C/1C [everolimus] + C/C(O)=C(\C#N)C(=O)Nc1cc(Br)ccc1Br [LFM-A13] (first compound 0.02 µM, partner dose 2 µM) | 138% | 51.8% | 198% | 144% | 77.3% | 141% | 92.2% | 148%

Single entries from above.
cleaved PARP positive nuclei fraction [4], Cn1cc(C2=C(c3cn(C4CCN(Cc5ccccn5)CC4)c4ccccc34)C(=O)NC2=O)c2ccccc21 [Enzastaurin] + COc1cc2ncnc(Nc3ccc(Oc4ccccc4)cc3)c2cc1OC [SrcI1] (first compound 0.8 µM, partner dose 2 µM) is entered as 102%
cleaved PARP positive nuclei fraction [5], C[C@@H](Oc1cc(-c2cnn(C3CCNCC3)c2)cnc1N)c1c(Cl)ccc(F)c1Cl [Crizotinib] + C/C(O)=C(\C#N)C(=O)Nc1cc(Br)ccc1Br [LFM-A13] (first compound 0.2 µM, partner dose 2 µM) is entered as 94%
